Assay results published in the supplement of paper PMC12823440, “Inhibitors supercharge kinase turnover through native proteolytic circuits” (Nature, 2025).
Counter-ions that a name gives are not always drawn. The list shows a part of the results. The calls rarely recur for the same compound in another form.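 Kinases were expressed as nanoluciferase fusions in K562 cells and luminescence was read every 4 h between 2 and 18 h as percent of control, DMSO set to 100% and a positive control to 0%. A time point counts as decreased when the signal drops significantly (2 sigma). The hit call is the authors' own, does not follow from the count of time points alone, and its rule is not shown.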

Molecular target: RAF1 (UniProt P04049)
Assay: number of time points (of 5) at which kinase-Nluc abundance scored as decreased, DMSO-normalised (count); higher = more persistent destabilization
Details: K562; 2-18 h

| Compound | number of time points |
| --- | --- |
| O=c1cc(-c2ccc(O[C@@H]3O[C@H](CO)[C@@H](O)[C@H](O)[C@H]3O)cc2)oc2cc(O)c([C@@H]3O[C@H](CO)[C@@H](O)[C@H](O)[C@H]3O[C@@H]3OC[C@H](O)[C@H](O)[C@H]3O)c(O)c12 [Vaccarin] (10 µM) | 0 |
| Nc1ccc(Sc2nc3ccccc3s2)c(Cl)c1 [KRAS inhibitor-9] (10 µM) | 0 |
| COc1ccc2cc1Oc1ccc(cc1)C[C@H]1c3cc(c(OC)cc3CCN1C)Oc1c(O)c(OC)cc3c1[C@H](C2)N(C)CC3 [Fangchinoline] (2.5 µM) | 0 |
| Nc1nccc(Oc2ccc3c(C(=O)Nc4cccc(C(F)(F)F)c4)cccc3c2)n1 (10 µM) | 0 |
| CN1C(=O)N[C@@H](Cc2c[nH]c3c(Cl)cccc23)C1=O [Necrostatin 2 (S enantiomer)] (10 µM) | 0 |
| Cc1ncc(-c2cc(F)c(O)c(F)c2)cc1-c1cc(F)c(O)c(F)c1 (10 µM) | 0 |
| N=C(NC(=N)N1CCCC1)Nc1ccc(OC(F)(F)F)cc1 (10 µM) | 0 |

Molecular target: RAF1_S257L (clone: RAF1_mut) (UniProt P04049)
Assay: as above
Details: K562; 2-18 h

| Compound | number of time points |
| --- | --- |
| COc1ccc(Br)c(C=O)c1O [6-Bromo-2-hydroxy-3-methoxybenzaldehyde] (10 µM) | 0 |
| O=C1C=CC2=C3c4cc(O)c(O)cc4CC3(O)COC2=C1O (stereo unspecified) [Hematein] (10 µM) | 0 |
| Cc1cccc(CC(=O)N2CCc3c2ccc(-c2cn(C)c4ncnc(N)c24)c3F)n1 (10 µM) | 0 |
| COCCOc1cnc2ccn([C@H](C)c3nnc4c(F)cc(-c5cnn(C)c5)cn34)c(=O)c2c1 (10 µM) | 0 |
| Cn1cc(C2=C(c3ccc(Cl)cc3Cl)C(=O)NC2=O)c2ccccc21 (10 µM) | 0 |
| COc1cc(N2CCC(N3CCN(C)CC3)CC2)ccc1Nc1ncnc(Nc2ccccc2S(=O)(=O)C(C)C)n1 (10 µM) | 0 |
| COc1c(Nc2ncc(Cl)c(N[C@H]3[C@@H](C(N)=O)[C@@H]4C=C[C@H]3C4)n2)ccc2c1CC[C@@H](N1CCOCC1)CC2 (10 µM) | 0 |
| Cc1ccc(NC(=O)N2CCN(c3nc(N)nc4sc(-c5cccnc5)nc34)CC2)cc1 [PI4KIII beta inhibitor 3] (10 µM) | 0 |
| CNc1cc2c(Nc3cccc(Br)c3)ncnc2cn1 (10 µM) | 0 |
| CC(C)n1c(CO)nc2c(F)cc(-c3nc(Nc4ccc(CN5CCNCC5)cn4)ncc3F)cc21 (10 µM) | 4 |
| CN1CCC(Nc2ccc(C(=O)Nc3cc(-c4ccc5c(c4)OCO5)[nH]n3)cc2)CC1 (10 µM) | 2 |
| CNC(=O)CN1CCC(Oc2cc3c(Nc4cccc(Cl)c4F)ncnc3cc2OC)CC1 [Sapitinib] (10 µM) | 0 |
| O=C(O)c1c[nH]c2cc(Cl)c(-c3ccc(C4(O)CCC4)cc3)cc12 (10 µM) | 0 |
| COc1cc(N2CCC(O)CC2)ccc1Nc1nc(Nc2ccccc2S(=O)(=O)C(C)C)c2[nH]cnc2n1 (10 µM) | 0 |
| O=c1c(O)c(-c2ccc(O)c(O)c2)oc2cc(O)c(O)c(O)c12 [Quercetagetin] (10 µM) | 0 |
| Cc1ncsc1-c1ccc(CNC(=O)[C@@H]2C[C@@H](O)CN2C(=O)[C@@H](NC(=O)COCCOc2ccc(-c3cc(Nc4ccc(OC(F)(F)F)cc4)ncn3)cc2)C(C)(C)C)cc1 (2.5 µM) | 3 |
| COc1cc(Nc2ccnc3ccc(Br)cc23)cc(OC)c1OC (2.5 µM) | 0 |
| Cc1ccc2c(NS(=O)(=O)c3ccccc3Cl)cccc2c1Oc1ncccc1-c1ccnc(N[C@H]2CCCNC2)n1 (2.5 µM) | 0 |
| CC(C)c1cc2c(c(O)c1O)[C@@]13CCCC(C)(C)[C@@H]1C[C@@H]2OC3=O [Carnosol] (2.5 µM) | 0 |
| Cc1nc2c(NCc3cccc(S(C)(=O)=O)c3)nccn2c1-c1ccc(O)c(F)c1 (10 µM) | 0 |
| CC(C)n1cnc2c(Nc3cccc(Cl)c3)nc(N[C@H]3CCCC[C@@H]3N)nc21 (2.5 µM) | 0 |
| O=c1cc(N2CCOCC2)oc2c(-c3cccc4c3sc3ccccc34)cccc12 (10 µM) | 0 |
| C[C@@H]1COC(Nc2ccc3ncnc(Nc4ccc(OCc5nccs5)c(Cl)c4)c3c2)=N1 [Varlitinib] (10 µM) | 0 |
| Cc1cncc2cccc(S(=O)(=O)N3CCCNC[C@@H]3C)c12 [H-1152 (dihydrochloride)] (10 µM) | 0 |

Taken from the results shown (2 entries):

| Compound | number of time points |
| --- | --- |
| O=C1C=CC2=C3c4cc(O)c(O)cc4CC3(O)COC2=C1O (stereo unspecified) [Hematein] (10 µM) | 0 |
| Cc1cccc(CC(=O)N2CCc3c2ccc(-c2cn(C)c4ncnc(N)c24)c3F)n1 (10 µM) | 0 |
